Source: the supplement of paper PMC11438910
The list shows a part of the results. Most of these values are background signal.

How the values were obtained:
Assay in all cases: fluorescence intensity of antibody binding to polysaccharide-coupled beads; higher = stronger binding
[1] = molecular target: pneumococcal polysaccharide Pn23F
[2] = molecular target: pneumococcal polysaccharide Pn24A
[3] = molecular target: pneumococcal polysaccharide Pn24B
[4] = molecular target: pneumococcal polysaccharide Pn24F
[5] = molecular target: pneumococcal polysaccharide Pn25A
[6] = molecular target: pneumococcal polysaccharide Pn25F
[7] = molecular target: pneumococcal polysaccharide Pn27
[8] = molecular target: pneumococcal polysaccharide Pn28A
[9] = molecular target: pneumococcal polysaccharide Pn28F
[10] = molecular target: pneumococcal polysaccharide Pn29
[11] = molecular target: pneumococcal polysaccharide Pn3
[12] = molecular target: pneumococcal polysaccharide Pn31
[13] = molecular target: pneumococcal polysaccharide Pn32A
[14] = molecular target: pneumococcal polysaccharide Pn32F
[15] = molecular target: pneumococcal polysaccharide Pn33A
[16] = molecular target: pneumococcal polysaccharide Pn33B
[17] = molecular target: pneumococcal polysaccharide Pn33C
[18] = molecular target: pneumococcal polysaccharide Pn33D
[19] = molecular target: pneumococcal polysaccharide Pn33F
[20] = molecular target: pneumococcal polysaccharide Pn34
[21] = molecular target: pneumococcal polysaccharide Pn35A
[22] = molecular target: pneumococcal polysaccharide Pn35B
[23] = molecular target: pneumococcal polysaccharide Pn35C
[24] = antibody concentration 2.8593 ng/mL
[25] = antibody concentration 15.2894 ng/mL
[26] = antibody concentration 81.7561 ng/mL
[27] = antibody concentration 437.17 ng/mL
[28] = antibody concentration 2337.65 ng/mL
[29] = antibody concentration 12500 ng/mL
[30] = antibody concentration 0.1 ng/mL
[31] = antibody concentration 0.534724 ng/mL

B1: 4-80.2 (protein)
chain 1: QVQLQESGPGLVKPSETLSLTCAVSGDSFSSYWWSWIRQPPGKGLEWIGEINGNVGSTNYNPSLKSRVTISKDASKNQFSLKLSSVTAADTAVYYCARYKEYWGQGVLVTVSS
chain 2: DVVMTQSPLSLPITPGQPASISCRSSQSLVHSNGNTYLSWYQQKPGQPPRRLIYEVSNRDSGVPDRFSGSGAGTDFTLKISRVEAEDVGVYYCGQGTHLPYSFGQGTKVEIK
- fluorescence intensity [1, 24]: 18.5 MFI
- fluorescence intensity [1, 25]: 18.5 MFI
- fluorescence intensity [1, 26]: 18.8 MFI
- fluorescence intensity [1, 27]: 17.5 MFI
- fluorescence intensity [1, 28]: 19.5 MFI
- fluorescence intensity [1, 29]: 24 MFI
- fluorescence intensity [2, 30]: 17.2 MFI
- fluorescence intensity [2, 31]: 15 MFI
- fluorescence intensity [2, 24]: 17 MFI
- fluorescence intensity [2, 25]: 15.5 MFI
- fluorescence intensity [2, 26]: 17.5 MFI
- fluorescence intensity [2, 27]: 14.5 MFI
- fluorescence intensity [2, 28]: 17.5 MFI
- fluorescence intensity [2, 29]: 19.2 MFI
- fluorescence intensity [3, 30]: 18.5 MFI
- fluorescence intensity [3, 31]: 17.5 MFI
- fluorescence intensity [3, 24]: 19.8 MFI
- fluorescence intensity [3, 25]: 17.2 MFI
- fluorescence intensity [3, 26]: 18 MFI
- fluorescence intensity [3, 27]: 19.8 MFI
- fluorescence intensity [3, 28]: 22 MFI
- fluorescence intensity [3, 29]: 32 MFI
- fluorescence intensity [4, 30]: 15.8 MFI
- fluorescence intensity [4, 31]: 19.8 MFI
- fluorescence intensity [4, 24]: 17.8 MFI
- fluorescence intensity [4, 25]: 15 MFI
- fluorescence intensity [4, 26]: 17.5 MFI
- fluorescence intensity [4, 27]: 19.8 MFI
- fluorescence intensity [4, 28]: 22.8 MFI
- fluorescence intensity [4, 29]: 30 MFI
- fluorescence intensity [5, 30]: 25 MFI
- fluorescence intensity [5, 31]: 25 MFI
- fluorescence intensity [5, 24]: 24 MFI
- fluorescence intensity [5, 25]: 24 MFI
- fluorescence intensity [5, 26]: 24 MFI
- fluorescence intensity [5, 27]: 24 MFI
- fluorescence intensity [5, 28]: 26 MFI
- fluorescence intensity [5, 29]: 28 MFI
- fluorescence intensity [6, 30]: 31.5 MFI
- fluorescence intensity [6, 31]: 32.2 MFI
- fluorescence intensity [6, 24]: 29.5 MFI
- fluorescence intensity [6, 25]: 31 MFI
- fluorescence intensity [6, 26]: 31 MFI
- fluorescence intensity [6, 27]: 31.5 MFI
- fluorescence intensity [6, 28]: 32 MFI
- fluorescence intensity [6, 29]: 38 MFI
- fluorescence intensity [7, 30]: 18.5 MFI
- fluorescence intensity [7, 31]: 18.5 MFI
- fluorescence intensity [7, 24]: 18 MFI
- fluorescence intensity [7, 25]: 18 MFI
- fluorescence intensity [7, 26]: 17.2 MFI
- fluorescence intensity [7, 27]: 19 MFI
- fluorescence intensity [7, 28]: 20 MFI
- fluorescence intensity [7, 29]: 43.5 MFI
- fluorescence intensity [8, 30]: 28 MFI
- fluorescence intensity [8, 31]: 27.5 MFI
- fluorescence intensity [8, 24]: 26 MFI
- fluorescence intensity [8, 25]: 26 MFI
- fluorescence intensity [8, 26]: 27.5 MFI
- fluorescence intensity [8, 27]: 28.5 MFI
- fluorescence intensity [8, 28]: 29 MFI
- fluorescence intensity [8, 29]: 31 MFI
- fluorescence intensity [9, 30]: 32 MFI
- fluorescence intensity [9, 31]: 32.5 MFI
- fluorescence intensity [9, 24]: 28 MFI
- fluorescence intensity [9, 25]: 31.5 MFI
- fluorescence intensity [9, 26]: 30.5 MFI
- fluorescence intensity [9, 27]: 31.5 MFI
- fluorescence intensity [9, 28]: 32 MFI
- fluorescence intensity [9, 29]: 33 MFI
- fluorescence intensity [10, 30]: 17.5 MFI
- fluorescence intensity [10, 31]: 18.5 MFI
- fluorescence intensity [10, 24]: 15.8 MFI
- fluorescence intensity [10, 25]: 16.2 MFI
- fluorescence intensity [10, 26]: 17.5 MFI
- fluorescence intensity [10, 27]: 17.5 MFI
- fluorescence intensity [10, 28]: 18.5 MFI
- fluorescence intensity [10, 29]: 34.5 MFI
- fluorescence intensity [11, 30]: 14.5 MFI
- fluorescence intensity [11, 31]: 14.8 MFI
- fluorescence intensity [11, 24]: 14 MFI
- fluorescence intensity [11, 25]: 17 MFI
- fluorescence intensity [11, 26]: 30.5 MFI
- fluorescence intensity [11, 27]: 117 MFI
- fluorescence intensity [11, 28]: 524 MFI
- fluorescence intensity [11, 29]: 1390 MFI
- fluorescence intensity [12, 30]: 15 MFI
- fluorescence intensity [12, 31]: 15 MFI
- fluorescence intensity [12, 24]: 15 MFI
- fluorescence intensity [12, 25]: 15 MFI
- fluorescence intensity [12, 26]: 14.5 MFI
- fluorescence intensity [12, 27]: 14 MFI
- fluorescence intensity [12, 28]: 16.5 MFI
- fluorescence intensity [12, 29]: 19.5 MFI
- fluorescence intensity [13, 30]: 18.8 MFI
- fluorescence intensity [13, 31]: 19.5 MFI
- fluorescence intensity [13, 24]: 17.5 MFI
- fluorescence intensity [13, 25]: 18 MFI
- fluorescence intensity [13, 26]: 17.2 MFI
- fluorescence intensity [13, 27]: 18 MFI
- fluorescence intensity [13, 28]: 19.5 MFI
- fluorescence intensity [13, 29]: 27 MFI
- fluorescence intensity [14, 30]: 30.2 MFI
- fluorescence intensity [14, 31]: 28 MFI
- fluorescence intensity [14, 24]: 28.5 MFI
- fluorescence intensity [14, 25]: 28.2 MFI
- fluorescence intensity [14, 26]: 29.5 MFI
- fluorescence intensity [14, 27]: 27.5 MFI
- fluorescence intensity [14, 28]: 30.5 MFI
- fluorescence intensity [14, 29]: 37 MFI
- fluorescence intensity [15, 30]: 20.8 MFI
- fluorescence intensity [15, 31]: 19.5 MFI
- fluorescence intensity [15, 24]: 17.5 MFI
- fluorescence intensity [15, 25]: 19 MFI
- fluorescence intensity [15, 26]: 17.8 MFI
- fluorescence intensity [15, 27]: 18.2 MFI
- fluorescence intensity [15, 28]: 29.2 MFI
- fluorescence intensity [15, 29]: 104 MFI
- fluorescence intensity [16, 30]: 20 MFI
- fluorescence intensity [16, 31]: 19 MFI
- fluorescence intensity [16, 24]: 18 MFI
- fluorescence intensity [16, 25]: 19.2 MFI
- fluorescence intensity [16, 26]: 18.5 MFI
- fluorescence intensity [16, 27]: 19.8 MFI
- fluorescence intensity [16, 28]: 19.2 MFI
- fluorescence intensity [16, 29]: 23.5 MFI
- fluorescence intensity [17, 30]: 21.5 MFI
- fluorescence intensity [17, 31]: 20 MFI
- fluorescence intensity [17, 24]: 19.8 MFI
- fluorescence intensity [17, 25]: 20 MFI
- fluorescence intensity [17, 26]: 19 MFI
- fluorescence intensity [17, 27]: 21 MFI
- fluorescence intensity [17, 28]: 20 MFI
- fluorescence intensity [17, 29]: 28.5 MFI
- fluorescence intensity [18, 30]: 18.8 MFI
- fluorescence intensity [18, 31]: 18 MFI
- fluorescence intensity [18, 24]: 16.5 MFI
- fluorescence intensity [18, 25]: 18 MFI
- fluorescence intensity [18, 26]: 15.2 MFI
- fluorescence intensity [18, 27]: 14.5 MFI
- fluorescence intensity [18, 28]: 16 MFI
- fluorescence intensity [18, 29]: 22 MFI
- fluorescence intensity [19, 30]: 15.5 MFI
- fluorescence intensity [19, 31]: 13.5 MFI
- fluorescence intensity [19, 24]: 13.5 MFI
- fluorescence intensity [19, 25]: 13.8 MFI
- fluorescence intensity [19, 26]: 14.5 MFI
- fluorescence intensity [19, 27]: 14 MFI
- fluorescence intensity [19, 28]: 16 MFI
- fluorescence intensity [19, 29]: 42.5 MFI
- fluorescence intensity [20, 30]: 14 MFI
- fluorescence intensity [20, 31]: 14.5 MFI
- fluorescence intensity [20, 24]: 14 MFI
- fluorescence intensity [20, 25]: 14.5 MFI
- fluorescence intensity [20, 26]: 15.5 MFI
- fluorescence intensity [20, 27]: 14 MFI
- fluorescence intensity [20, 28]: 15 MFI
- fluorescence intensity [20, 29]: 16 MFI
- fluorescence intensity [21, 30]: 18.5 MFI
- fluorescence intensity [21, 31]: 17 MFI
- fluorescence intensity [21, 24]: 18 MFI
- fluorescence intensity [21, 25]: 18.2 MFI
- fluorescence intensity [21, 26]: 16.2 MFI
- fluorescence intensity [21, 27]: 17 MFI
- fluorescence intensity [21, 28]: 20 MFI
- fluorescence intensity [21, 29]: 34.2 MFI
- fluorescence intensity [22, 30]: 19 MFI
- fluorescence intensity [22, 31]: 19 MFI
- fluorescence intensity [22, 24]: 19.5 MFI
- fluorescence intensity [22, 25]: 18 MFI
- fluorescence intensity [22, 26]: 18.8 MFI
- fluorescence intensity [22, 27]: 17.8 MFI
- fluorescence intensity [22, 28]: 20.5 MFI
- fluorescence intensity [22, 29]: 32.2 MFI
- fluorescence intensity [23, 30]: 20 MFI
- fluorescence intensity [23, 31]: 19.5 MFI
- fluorescence intensity [23, 24]: 20 MFI
- fluorescence intensity [23, 25]: 20 MFI
- fluorescence intensity [23, 26]: 20.5 MFI
- fluorescence intensity [23, 27]: 20.5 MFI
